No constants are given. Whether binding was seen depends on the method and setting. Some binding calls cover weakened binding; strength is not graded here. Sequences can lack the tags named with a protein.
molecular target: T1, LexA-axotrophin RING-variant domain fusion protein (pEG-axoCT, aa 552–682) (human) (UniProt Q9H992); test: two-hybrid; DupLEX (OriGene), nuclear; LexA fusion (pEG) as bait, activation-domain fusion (pJG) as prey; growth on leucine-deficient medium
T1 sequence: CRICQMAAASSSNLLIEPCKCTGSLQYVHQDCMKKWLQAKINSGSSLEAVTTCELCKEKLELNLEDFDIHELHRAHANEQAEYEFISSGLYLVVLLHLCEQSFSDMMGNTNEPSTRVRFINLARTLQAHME

Amino acid sequences for entries named in this document (tags omitted).
UniProt P61088: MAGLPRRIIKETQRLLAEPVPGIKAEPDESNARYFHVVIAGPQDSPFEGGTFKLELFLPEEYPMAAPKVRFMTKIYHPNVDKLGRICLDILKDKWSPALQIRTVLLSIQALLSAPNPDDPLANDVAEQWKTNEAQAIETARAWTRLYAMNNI
UniProt P61077: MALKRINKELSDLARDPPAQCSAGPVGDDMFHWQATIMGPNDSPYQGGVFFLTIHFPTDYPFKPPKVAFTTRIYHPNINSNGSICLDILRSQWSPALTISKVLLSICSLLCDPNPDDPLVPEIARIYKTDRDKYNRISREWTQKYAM
UniProt P61081: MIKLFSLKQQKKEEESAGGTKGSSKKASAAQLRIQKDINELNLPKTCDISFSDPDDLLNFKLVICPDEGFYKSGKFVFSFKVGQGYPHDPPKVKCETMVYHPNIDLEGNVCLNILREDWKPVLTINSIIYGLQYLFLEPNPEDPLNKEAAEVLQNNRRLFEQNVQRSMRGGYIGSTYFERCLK

Row | Substance | binding
1 | ubiquitin chain elongating enzyme Ubc13 (from UniProt P61088 1-152) | binds weakly
2 | E2 enzyme UbcH5c (from UniProt P61077 1-147) | binds
3 | protein phosphatase 2B (calcineurin) catalytic subunit, isoform PP2Bb (from UniProt P16298 1-524) (enzyme) | binds
4 | neddylation E2 enzyme Ubc12 (from UniProt P61081 1-183) | binds weakly
